Measured values as given in patent US20220324953A1.
Results are given in words; binding and its absence hold for the method and conditions named. Some results given as binding are weak or reduced against the parent protein; the word gives no strength.

The chains behind the UniProt entries cited, without tags or fusion partners. Residues count along the entry.
UniProt P29279, residues 27-349: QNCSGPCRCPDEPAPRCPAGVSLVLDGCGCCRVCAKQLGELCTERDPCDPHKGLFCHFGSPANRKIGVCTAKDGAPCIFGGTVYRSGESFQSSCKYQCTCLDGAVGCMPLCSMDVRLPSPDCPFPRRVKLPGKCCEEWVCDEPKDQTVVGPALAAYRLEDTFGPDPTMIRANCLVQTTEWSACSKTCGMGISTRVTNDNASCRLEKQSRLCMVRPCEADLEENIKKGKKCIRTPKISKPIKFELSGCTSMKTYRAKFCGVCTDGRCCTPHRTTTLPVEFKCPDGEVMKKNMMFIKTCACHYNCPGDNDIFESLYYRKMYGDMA

How the values were obtained:
[1] = target: human CTGF (antigen of the Biacore assays) (human) (UniProt P29279); assay: Biacore
[2] = target: Cynomolgus CTGF-Fc (fusion protein of cynomolgus CTGF coding region with Fc) (cynomolgus); assay: ELISA

Binder	binding [1]	binding [2]
chimeric antibody Ch147 (antibody, human IgG1, kappa, V domains shown) VH: EVQLVESGGGLVQPEGSLKLSCAASGFSFNTYAMNWVRQAPGKGLEWVARIRTKSNNYATYYADSVKDRFTISRDDSESMLYLQMNNLKTEDTAMYYCVETGFAYWDQGTLVTVSA VL: QIVLTQSPAIMSASPGEKVTITCSASSSVSYMHWFQQKPGTSPKLWIYSTSNLASGVPARFSGSGSGTSYSLTISRMEAEDAATYYCQQRSSYPLTFGAGTKLELKR	binds	
chimeric antibody Ch164 (antibody, human IgG1, lambda, V domains shown) VH: QVQLKQSGPGLVQPSQSLSITCTVSGFSLTTFGVHWIRQSPGKGLEWLGVIWRRGGTDYNAAFMSRLSITKDNSRSHVFFKMTSLQTDDSAIYYCARDGGFDYWGQGTTLTVSS VL: QAVVTQESALTTSPGGTVILTCRSSIGAVTTSNYANWVQEKPDHLFTGLIGGTSNRAPGVPVRFSGSLIGDKAALTITGAQAEDDAMYFCALWYSTHYVFGGGTKVTVLG	binds	
Hu147-11wk (antibody, human IgG1, kappa, V domains shown) VH: EVQLVESGGGLVQPGGSLRLSCAASGFTFSTYAMNWVRQAPGKGLEWVGRIRTKSNNYATYYADSVKDRFTISRDDSKNSLYLQMNSLKTEDTAVYYCVETGFAYWDQGTLVTVSS VL: EIVLTQSPATLSLSPGERATLSCSASSSVSYMHWFQQKPGQSPRLLIYSTSNLASGIPARFSGSGSGTDYTLTISSLEPEDFAVYYCQQRSSYPLTFGQGTKLEIKR	binds	binds
Hu147-12wk (antibody, human IgG1, kappa, V domains shown) VH: EVQLVESGGGLVQPGGSLRLSCAASGFTFSTYAMNWVRQAPGKGLEWVGRIRTKSNNYATYYADSVKDRFTISRDDSKNSLYLQMNSLKTEDTAVYYCVETGFAYWDQGTLVTVSS VL: EIVLTQSPATLSLSPGERATLSCSASSSVSYMHWFQQKPGQSPKLLIYSTSNLASGIPARFSGSGSGTDYTLTISSLEPEDFAVYYCQQRSSYPLTFGQGTKLEIKR	binds	binds
Hu147-13wk (antibody, human IgG1, kappa, V domains shown) VH: EVQLVESGGGLVQPGGSLRLSCAASGFTFSTYAMNWVRQAPGKGLEWVGRIRTKSNNYATYYADSVKDRFTISRDDSKNSLYLQMNSLKTEDTAVYYCVETGFAYWDQGTLVTVSS VL: EIVLTQSPATLSLSPGERATLSCSASSSVSYMHWFQQKPGQSPKLWIYSTSNLASGVPARFSGSGSGTDYTLTISSLEPEDFAVYYCQQRSSYPLTFGQGTKLEIKR	binds	binds
Hu147-14wk (antibody, human IgG1, kappa, V domains shown) VH: EVQLVESGGGLVQPGGSLRLSCAASGFTFSTYAMNWVRQAPGKGLEWVGRIRTKSNNYATYYADSVKDRFTISRDDSKNSLYLQMNSLKTEDTAVYYCVETGFAYWDQGTLVTVSS VL: DIQMTQSPSSLSASVGDRVTITCSASSSVSYMHWFQQKPGKSPKLLIYSTSNLASGVPSRFSGSGSGTDYTLTISSLQPEDFATYYCQQRSSYPLTFGQGTKLEIKR	binds	binds
Hu147-21wk (antibody, human IgG1, kappa, V domains shown) VH: EVQLVESGGGLVQPGGSLRLSCAASGFTFNTYAMNWVRQAPGKGLEWVARIRTKSNNYATYYADSVKDRFTISRDDSKNSLYLQMNSLKTEDTAVYYCVETGFAYWDQGTLVTVSS VL: EIVLTQSPATLSLSPGERATLSCSASSSVSYMHWFQQKPGQSPRLLIYSTSNLASGIPARFSGSGSGTDYTLTISSLEPEDFAVYYCQQRSSYPLTFGQGTKLEIKR	binds	binds
Hu147-22wk (antibody, human IgG1, kappa, V domains shown) VH: EVQLVESGGGLVQPGGSLRLSCAASGFTFNTYAMNWVRQAPGKGLEWVARIRTKSNNYATYYADSVKDRFTISRDDSKNSLYLQMNSLKTEDTAVYYCVETGFAYWDQGTLVTVSS VL: EIVLTQSPATLSLSPGERATLSCSASSSVSYMHWFQQKPGQSPKLLIYSTSNLASGIPARFSGSGSGTDYTLTISSLEPEDFAVYYCQQRSSYPLTFGQGTKLEIKR	binds	binds
Hu147-23wk (antibody, human IgG1, kappa, V domains shown) VH: EVQLVESGGGLVQPGGSLRLSCAASGFTFNTYAMNWVRQAPGKGLEWVARIRTKSNNYATYYADSVKDRFTISRDDSKNSLYLQMNSLKTEDTAVYYCVETGFAYWDQGTLVTVSS VL: EIVLTQSPATLSLSPGERATLSCSASSSVSYMHWFQQKPGQSPKLWIYSTSNLASGVPARFSGSGSGTDYTLTISSLEPEDFAVYYCQQRSSYPLTFGQGTKLEIKR	binds	binds
Hu147-31wk (antibody, human IgG1, kappa, V domains shown) VH: EVQLVESGGGLVQPGGSLRLSCAASGFSFNTYAMNWVRQAPGKGLEWVARIRTKSNNYATYYADSVKDRFTISRDDSESSLYLQMNSLKTEDTAVYYCVETGFAYWDQGTLVTVSS VL: EIVLTQSPATLSLSPGERATLSCSASSSVSYMHWFQQKPGQSPRLLIYSTSNLASGIPARFSGSGSGTDYTLTISSLEPEDFAVYYCQQRSSYPLTFGQGTKLEIKR	binds	binds
Hu147-32wk (antibody, human IgG1, kappa, V domains shown) VH: EVQLVESGGGLVQPGGSLRLSCAASGFSFNTYAMNWVRQAPGKGLEWVARIRTKSNNYATYYADSVKDRFTISRDDSESSLYLQMNSLKTEDTAVYYCVETGFAYWDQGTLVTVSS VL: EIVLTQSPATLSLSPGERATLSCSASSSVSYMHWFQQKPGQSPKLLIYSTSNLASGIPARFSGSGSGTDYTLTISSLEPEDFAVYYCQQRSSYPLTFGQGTKLEIKR	binds	binds
Hu147-33wk (antibody, human IgG1, kappa, V domains shown) VH: EVQLVESGGGLVQPGGSLRLSCAASGFSFNTYAMNWVRQAPGKGLEWVARIRTKSNNYATYYADSVKDRFTISRDDSESSLYLQMNSLKTEDTAVYYCVETGFAYWDQGTLVTVSS VL: EIVLTQSPATLSLSPGERATLSCSASSSVSYMHWFQQKPGQSPKLWIYSTSNLASGVPARFSGSGSGTDYTLTISSLEPEDFAVYYCQQRSSYPLTFGQGTKLEIKR	binds	binds
Hu147-34wk (antibody, human IgG1, kappa, V domains shown) VH: EVQLVESGGGLVQPGGSLRLSCAASGFSFNTYAMNWVRQAPGKGLEWVARIRTKSNNYATYYADSVKDRFTISRDDSESSLYLQMNSLKTEDTAVYYCVETGFAYWDQGTLVTVSS VL: DIQMTQSPSSLSASVGDRVTITCSASSSVSYMHWFQQKPGKSPKLLIYSTSNLASGVPSRFSGSGSGTDYTLTISSLQPEDFATYYCQQRSSYPLTFGQGTKLEIKR	binds	binds
Hu164-57wl (antibody, human IgG1, lambda, V domains shown) VH: EVTLKESGPVLVKPTETLTLTCTVSGFSLSTFGVHWIRQPPGKALEWLAVIWRRGGTDYNAAFMSRLTISKDTSKSQVVLTMTNMDPVDTATYYCARDGGFDYWGQGTTVTVSS VL: ETVVTQEPSLTVSPGGTVTLTCRSSIGAVTTSNYANWVQQKPGQAFRGLIGGTSNRAPWTPARFSGSLLGGKAALTLSGVQPEDEAEYYCALWYSTHYVFGGGTKLTVLG	binds	binds
Hu164-77wl (antibody, human IgG1, lambda, V domains shown) VH: EVQLQESGPGLVKPSQTLSLTCTVSGFSISTFGVHWIRQHPGKGLEWIGVIWRRGGTDYNAAFMSRVTISKDTSKNQVSLKLSSVTAADTAVYYCARDGGFDYWGQGTTVTVSS VL: ETVVTQEPSLTVSPGGTVTLTCRSSIGAVTTSNYANWVQQKPGQAFRGLIGGTSNRAPWTPARFSGSLLGGKAALTLSGVQPEDEAEYYCALWYSTHYVFGGGTKLTVLG	binds	binds
Hu164-87wl (antibody, human IgG1, lambda, V domains shown) VH: EVQLQESGPGLVKPSQTLSLTCTVSGFSISTFGVHWIRQHPGKGLEWLGVIWRRGGTDYNAAFMSRLTISKDTSKNQVSFKLSSVTAADTAVYYCARDGGFDYWGQGTTVTVSS VL: ETVVTQEPSLTVSPGGTVTLTCRSSIGAVTTSNYANWVQQKPGQAFRGLIGGTSNRAPWTPARFSGSLLGGKAALTLSGVQPEDEAEYYCALWYSTHYVFGGGTKLTVLG	binds	binds
Hu164-68wl (antibody, human IgG1, lambda, V domains shown) VH: EVTLKESGPVLVKPTETLTLTCTVSGFSLSTFGVHWIRQPPGKGLEWLGVIWRRGGTDYNAAFMSRLTISKDTSKSQVVFTMTNMDPVDTATYYCARDGGFDYWGQGTTVTVSS VL: ETVVTQEPSFSVSPGGTVTLTCRSSIGAVTTSNYANWVQQTPGQAFRGLIGGTSNRAPGVPDRFSGSILGNKAALTITGAQADDESDYYCALWYSTHYVFGGGTKLTVLG	binds	binds
Hu164-69wl (antibody, human IgG1, lambda, V domains shown) VH: EVTLKESGPVLVKPTETLTLTCTVSGFSLSTFGVHWIRQPPGKGLEWLGVIWRRGGTDYNAAFMSRLTISKDTSKSQVVFTMTNMDPVDTATYYCARDGGFDYWGQGTTVTVSS VL: ESVVTQPPSVSGAPGQRVTISCRSSIGAVTTSNYANWVQQLPGTAFKGLIGGTSNRAPGVPDRFSGSKSGTSASLAITGLQAEDEADYYCALWYSTHYVFGGGTKLTVLG	binds	binds
Hu147-15wk (antibody, human IgG1, kappa, V domains shown) VH: EVQLVESGGGLVQPGGSLRLSCAASGFTFSTYAMNWVRQAPGKGLEWVGRIRTKSNNYATYYADSVKDRFTISRDDSKNSLYLQMNSLKTEDTAVYYCVETGFAYWDQGTLVTVSS VL: DIQLTQSPSSLSASVGDRVTITCSASSSVSYMHWFQQKPGKSPKLWIYSTSNLASGVPSRFSGSGSGTDYTLTISSLQPEDFATYYCQQRSSYPLTFGQGTKLEIKR		binds
Hu147-24wk (antibody, human IgG1, kappa, V domains shown) VH: EVQLVESGGGLVQPGGSLRLSCAASGFTFNTYAMNWVRQAPGKGLEWVARIRTKSNNYATYYADSVKDRFTISRDDSKNSLYLQMNSLKTEDTAVYYCVETGFAYWDQGTLVTVSS VL: DIQMTQSPSSLSASVGDRVTITCSASSSVSYMHWFQQKPGKSPKLLIYSTSNLASGVPSRFSGSGSGTDYTLTISSLQPEDFATYYCQQRSSYPLTFGQGTKLEIKR		binds
Hu95-51yk (antibody, human IgG1, kappa, V domains shown) VH: EVQLVQSGAEVKKPGASVKVSCRASGFTFTNYAIHWVKQAPGQRLEWMGLVYPYTGGTAYNQKFKDKVTLTFDTSASTAYMELSSLRSEDTAVYYCARWGMIPGTNSYFDVWGQGTTVTVSS VL: EIVLTQSPATLSLSPGERATLSCRASSSVSYIHWYQQKPGQAPRPWIYATSNLASGIPARFSGSGSGTDYTLTISRLEPEDFAVYYCQQWNSNPWTFGGGTKVEIKR		binds
